Publication PMC11111408, “Concurrent inhibition of oncogenic and wild-type RAS-GTP for cancer therapy” (Nature, 2024)
This continues a long series; more values of the same kind are listed elsewhere.

Tested on: PRISM DNA-barcoded human tumour cell lines
Test: PRISM pooled cell viability assay;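 also: 8 threefold dilutions from 10 µM with 5 days of exposure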
Type: cell-based
Parameters: Area under the curve (AUC): scale not given here
Protocol: Cells were then lysed in TCL mRNA lysis buffer, and then PCR with reverse transcription was performed. Detection of the barcodes and univariate and multivariate analysis was then performed as previously described. Data analysis is described in the Supplementary Methods. Up-to-date code for our analysis is at the github link: https://github.com/cmap/dockerized_mts.
For every gene with non-silent mutations in at least four cell-lines, we compared the AUC values between cells with and without those mutations using a t-test. This analysis was carried out for: (i) the full dataset; (ii) excluding cell lines with non-silent KRAS mutations; and (iii) excluding cell lines that have either KRAS or NRAS non-silent mutations.

SMILES: CCn1c(-c2cc(N3CCN(C4CC4)CC3)cnc2[C@H](C)OC)c2c3cc(ccc31)-c1csc(n1)C[C@H](NC(=O)[C@H]1[C@@H]3COC[C@@H]31)C(=O)N1CCC[C@H](N1)C(=O)OCC(C)(C)C2 [RMC-7977]
- Area under the curve (AUC) (8MGBA_CENTRAL_NERVOUS_SYSTEM): 0.9042
- Area under the curve (AUC) (22RV1_PROSTATE): 0.9273
- Area under the curve (AUC) (93T449_SOFT_TISSUE): 0.8906
- Area under the curve (AUC) (94T778_SOFT_TISSUE): 0.6572
- Area under the curve (AUC) (95T1000_SOFT_TISSUE): 0.5675
- Area under the curve (AUC) (143B_BONE): 0.5521
- Area under the curve (AUC) (253J_URINARY_TRACT): 0.787
- Area under the curve (AUC) (921_UVEA): 0.7581
- Area under the curve (AUC) (1618K_TESTIS): 0.7204
- Area under the curve (AUC) (1777NRPMET_TESTIS): 0.8773
- Area under the curve (AUC) (8505C_THYROID): 0.9978
- Area under the curve (AUC) (9505BIK_PANCREAS): 0.2525
- Area under the curve (AUC) (2313287_STOMACH): 0.6455
- Area under the curve (AUC) (A3KAW_HAEMATOPOIETIC_AND_LYMPHOID_TISSUE): 0.4846
- PRISM AUC (A3KAW_HAEMATOPOIETIC_AND_LYMPHOID_TISSUE, KRAS WT): 0.512
- Area under the curve (AUC) (A101D_SKIN): 0.9331
- PRISM AUC (A101D_SKIN, KRAS WT): 0.8318
- Area under the curve (AUC) (A172_CENTRAL_NERVOUS_SYSTEM): 0.863
- PRISM AUC (A172_CENTRAL_NERVOUS_SYSTEM, KRAS WT): 0.8873
- Area under the curve (AUC) (A204_SOFT_TISSUE): 0.7045
- Area under the curve (AUC) (A253_SALIVARY_GLAND): 0.4696
- PRISM AUC (A253_SALIVARY_GLAND, KRAS WT): 0.2994
- Area under the curve (AUC) (A375_SKIN): 0.8561
- PRISM AUC (A375_SKIN, KRAS WT): 0.8721
- Area under the curve (AUC) (A388_SKIN): 0.4368
- Area under the curve (AUC) (A427_LUNG): 0.4665
- Area under the curve (AUC) (A498_KIDNEY): 0.6699
- PRISM AUC (A498_KIDNEY, KRAS WT): 0.6684
- Area under the curve (AUC) (A549_LUNG): 0.6015
- Area under the curve (AUC) (A673_BONE): 0.9239
- PRISM AUC (A673_BONE, KRAS WT): 1
- Area under the curve (AUC) (A704_KIDNEY): 1
- PRISM AUC (A704_KIDNEY, KRAS WT): 0.906
- Area under the curve (AUC) (A1207_CENTRAL_NERVOUS_SYSTEM): 0.9954
- PRISM AUC (A1207_CENTRAL_NERVOUS_SYSTEM, KRAS WT): 0.9848
- Area under the curve (AUC) (A2058_SKIN): 0.7259
- PRISM AUC (A2058_SKIN, KRAS WT): 0.6601
- Area under the curve (AUC) (A2780_OVARY): 0.7059
- PRISM AUC (A2780_OVARY, KRAS WT): 0.5832
- Area under the curve (AUC) (ABC1_LUNG): 0.8026
- PRISM AUC (ABC1_LUNG, KRAS WT): 0.8614
- Area under the curve (AUC) (ACCMESO1_PLEURA): 0.6684
- PRISM AUC (ACCMESO1_PLEURA, KRAS WT): 0.7692
- Area under the curve (AUC) (ACHN_KIDNEY): 0.5903
- PRISM AUC (ACHN_KIDNEY, KRAS WT): 0.4579
- Area under the curve (AUC) (AGS_STOMACH): 0.4566
- Area under the curve (AUC) (ALLSIL_HAEMATOPOIETIC_AND_LYMPHOID_TISSUE): 0.8419
- Area under the curve (AUC) (AM38_CENTRAL_NERVOUS_SYSTEM): 0.8647
- PRISM AUC (AM38_CENTRAL_NERVOUS_SYSTEM, KRAS WT): 0.8345
- Area under the curve (AUC) (AMO1_HAEMATOPOIETIC_AND_LYMPHOID_TISSUE): 0.813
- PRISM AUC (AMO1_HAEMATOPOIETIC_AND_LYMPHOID_TISSUE, KRAS MUT): 0.6859
- Area under the curve (AUC) (AN3CA_ENDOMETRIUM): 0.5907
- PRISM AUC (AN3CA_ENDOMETRIUM, KRAS WT): 0.5419
- Area under the curve (AUC) (ANGMCSS_CENTRAL_NERVOUS_SYSTEM): 0.8905
- Area under the curve (AUC) (ASPC1_PANCREAS): 0.4861
- Area under the curve (AUC) (AU565_BREAST): 0.8808
- PRISM AUC (AU565_BREAST, KRAS WT): 0.8923
- Area under the curve (AUC) (BC3C_URINARY_TRACT): 0.7115
- PRISM AUC (BC3C_URINARY_TRACT, KRAS WT): 0.5008
- Area under the curve (AUC) (BCPAP_THYROID): 0.8173
- PRISM AUC (BCPAP_THYROID, KRAS WT): 0.8406
- Area under the curve (AUC) (BDCM_HAEMATOPOIETIC_AND_LYMPHOID_TISSUE): 0.8218
- Area under the curve (AUC) (BECKER_CENTRAL_NERVOUS_SYSTEM): 0.6729
- Area under the curve (AUC) (BEN_LUNG): 0.8006
- PRISM AUC (BEN_LUNG, KRAS WT): 0.6084
- Area under the curve (AUC) (BFTC905_URINARY_TRACT): 0.5049
- PRISM AUC (BFTC905_URINARY_TRACT, KRAS WT): 0.3728
- Area under the curve (AUC) (BFTC909_KIDNEY): 0.7912
- PRISM AUC (BFTC909_KIDNEY, KRAS WT): 0.814
- Area under the curve (AUC) (BHT101_THYROID): 0.8712
- PRISM AUC (BHT101_THYROID, KRAS WT): 0.8105
- Area under the curve (AUC) (BHY_UPPER_AERODIGESTIVE_TRACT): 0.6061
- PRISM AUC (BHY_UPPER_AERODIGESTIVE_TRACT, KRAS WT): 0.5449
- Area under the curve (AUC) (BICR6_UPPER_AERODIGESTIVE_TRACT): 0.48
- PRISM AUC (BICR6_UPPER_AERODIGESTIVE_TRACT, KRAS WT): 0.3797
- Area under the curve (AUC) (BICR16_UPPER_AERODIGESTIVE_TRACT): 0.6188
- PRISM AUC (BICR16_UPPER_AERODIGESTIVE_TRACT, KRAS WT): 0.3298
- Area under the curve (AUC) (BICR18_UPPER_AERODIGESTIVE_TRACT): 0.7129
- Area under the curve (AUC) (BICR22_UPPER_AERODIGESTIVE_TRACT): 0.7071
- PRISM AUC (BICR22_UPPER_AERODIGESTIVE_TRACT, KRAS WT): 0.5898
- Area under the curve (AUC) (BICR31_UPPER_AERODIGESTIVE_TRACT): 0.6329
- PRISM AUC (BICR31_UPPER_AERODIGESTIVE_TRACT, KRAS WT): 0.4708
- Area under the curve (AUC) (BICR56_UPPER_AERODIGESTIVE_TRACT): 0.4371
- PRISM AUC (BICR56_UPPER_AERODIGESTIVE_TRACT, KRAS WT): 0.3236
- Area under the curve (AUC) (BICR78_UPPER_AERODIGESTIVE_TRACT): 0.4728
- Area under the curve (AUC) (BL2_HAEMATOPOIETIC_AND_LYMPHOID_TISSUE): 0.5494
- Area under the curve (AUC) (BLUE1_HAEMATOPOIETIC_AND_LYMPHOID_TISSUE): 0.9088
- Area under the curve (AUC) (BOKU_CERVIX): 0.6867
- Area under the curve (AUC) (BONNA12_HAEMATOPOIETIC_AND_LYMPHOID_TISSUE): 0.5933
- Area under the curve (AUC) (BT12_SOFT_TISSUE): 0.5415
- Area under the curve (AUC) (BT16_SOFT_TISSUE): 0.6423
- Area under the curve (AUC) (BT474_BREAST): 0.8249
- PRISM AUC (BT474_BREAST, KRAS WT): 0.7734
- Area under the curve (AUC) (BT549_BREAST): 0.8194
- PRISM AUC (BT549_BREAST, KRAS WT): 0.982
- Area under the curve (AUC) (BV173_HAEMATOPOIETIC_AND_LYMPHOID_TISSUE): 0.4807
- PRISM AUC (BV173_HAEMATOPOIETIC_AND_LYMPHOID_TISSUE, KRAS WT): 0.3865
- Area under the curve (AUC) (BXPC3_PANCREAS): 0.9101
- PRISM AUC (BXPC3_PANCREAS, KRAS WT): 0.9333
- Area under the curve (AUC) (C4I_CERVIX): 0.6719
- Area under the curve (AUC) (C32_SKIN): 0.8084
- PRISM AUC (C32_SKIN, KRAS WT): 0.9007
- Area under the curve (AUC) (C33A_CERVIX): 0.9001
- Area under the curve (AUC) (C75_LARGE_INTESTINE): 0.9092
- Area under the curve (AUC) (C80_LARGE_INTESTINE): 0.5375
- Area under the curve (AUC) (C8166_HAEMATOPOIETIC_AND_LYMPHOID_TISSUE): 0.6874
- Area under the curve (AUC) (CADOES1_BONE): 0.9606
- PRISM AUC (CADOES1_BONE, KRAS WT): 0.9865
- Area under the curve (AUC) (CAKI1_KIDNEY): 0.7867
- PRISM AUC (CAKI1_KIDNEY, KRAS WT): 0.6399
- Area under the curve (AUC) (CAL12T_LUNG): 0.6265
- PRISM AUC (CAL12T_LUNG, KRAS WT): 0.5623
- Area under the curve (AUC) (CAL27_UPPER_AERODIGESTIVE_TRACT): 0.5135
- PRISM AUC (CAL27_UPPER_AERODIGESTIVE_TRACT, KRAS WT): 0.3039
- Area under the curve (AUC) (CAL29_URINARY_TRACT): 0.4956
- PRISM AUC (CAL29_URINARY_TRACT, KRAS WT): 0.3744
- Area under the curve (AUC) (CAL33_UPPER_AERODIGESTIVE_TRACT): 0.5486
- PRISM AUC (CAL33_UPPER_AERODIGESTIVE_TRACT, KRAS WT): 0.3871
